Test results taken from patent publication US20090011464A1 (published 2009).
These are yes or no findings as the source states them, for the method shown. For some assays here: Binding can be weak; no strength is given.

Assays:
[1] = target: α4β7 integrin on guinea pig lymphocytes (guinea pig); assay: flow cytometry, biotinylated antibody on whole-blood lymphocytes
[2] = target: α4β7 integrin on cat lymphocytes (cat); assay: flow cytometry on cat whole-blood lymphocytes, 15 µg/ml biotinylated antibody

binding [1]: no binding (tested: 15 µg/ml) | binding [2]: binds
B1: murine Act-1 monoclonal antibody (antibody, mouse IgG1, V domains shown)
VH: QVQLQQPGAELVKPGTSVKLSCKGYGYTFTSYWMHWVKQRPGQGLEWIGEIDPSESNTNYNQKFKGKATLTVDISSSTAYMQLSSLTSEDSAVYYCARGGYDGWDYAIDYWGQGTSVTVSS
VL: DVVVTQTPLSLPVSFGDQVSISCRSSQSLAKSYGNTYLSWYLHKPGQSPQLLIYGISNRFSGVPDRFSGSGSGTDFTLKISTIKPEDLGMYYCLQGTHQPYTFGGGTKLEIK
notes: Mouse IgG1/kappa from the Act-1 hybridoma (ATCC PTA-3663); also called mAb Act-1; mouse Act-1 antibody
